Measured values: the supplement of paper PMC4604168 (melanoma cell lines)
The other results are listed elsewhere or left out. Many values rest on one well or one pass, so single values are uncertain.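 The apoptosis fraction was the count of cleaved-PARP antibody-stained nuclei relative to all DNA-stained nuclei, imaged in 1,536-well plates. Screening doses were set so most cells survived, and baseline and induced cleaved-PARP levels vary greatly across cell lines.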

The molecules below were run on CBRC013 (line from a melanoma biopsy) (assay: cleaved PARP positive nuclei fraction relative to DMSO control; melanoma cells; higher = more apoptosis). Details: library dose: low library concentration; 72 h.

SMILES	cleaved PARP positive nuclei fraction [%]
CO[C@H]1C[C@@H]2CC[C@@H](C)[C@@](O)(O2)C(=O)C(=O)N2CCCC[C@H]2C(=O)O[C@H]([C@H](C)C[C@@H]2CC[C@@H](OCCO)[C@H](OC)C2)CC(=O)[C@H](C)/C=C(\C)[C@@H](O)[C@@H](OC)C(=O)[C@H](C)C[C@H](C)/C=C/C=C/C=C/1C [everolimus] + O=C(Nc1cccc(Cl)c1)Nc1ncc(CCNc2ncnc3ccsc23)s1 [SNS314] (first compound 0.02 µM, partner dose 0.0008 µM)	227
O=C(O)c1ccc2c(c1)nc(Nc1cccc(Cl)c1)c1ccncc12 + NC(=O)Nc1cc(-c2cccc(F)c2)sc1C(=O)N[C@H]1CCCNC1 [AZD7762] (first compound 0.4 µM, partner dose 0.02 µM)	71.5
Cn1c(=O)n(-c2ccc(C(C)(C)C#N)cc2)c2c3cc(-c4cnc5ccccc5c4)ccc3ncc21 + O=C(O)c1ccc(-c2c[nH]c3ncc(-c4ccccc4)cc23)cc1C1CCCC1 [GSK650394] (first compound 0.004 µM, partner dose 0.16 µM)	75.2
O=C(O)c1ccc2c(c1)nc(Nc1cccc(Cl)c1)c1ccncc12 + O=C(O)c1ccc(-c2c[nH]c3ncc(-c4ccccc4)cc23)cc1C1CCCC1 [GSK650394] (first compound 0.4 µM, partner dose 0.16 µM)	138
CC(C)C[C@H](NC(=O)[C@H](Cc1ccccc1)NC(=O)c1cnccn1)B(O)O [Bortezomib] + O=C(CCCCCCC(=O)Nc1ccccc1)NO [vorinostat] (first compound 0.001 µM, partner dose 0.08 µM)	60.2
O=C(O)c1ccc2c(c1)nc(Nc1cccc(Cl)c1)c1ccncc12 + O=C(Nc1cccc(Cl)c1)Nc1ncc(CCNc2ncnc3ccsc23)s1 [SNS314] (first compound 0.4 µM, partner dose 0.0008 µM)	107
Nc1nc(F)nc2c1ncn2[C@@H]1O[C@H](CO)[C@@H](O)[C@@H]1O [fludarabine] + C=CCn1c(=O)c2cnc(Nc3ccc(N4CCN(C)CC4)cc3)nc2n1-c1cccc(C(C)(C)O)n1 [MK1775] (first compound 0.2 µM, partner dose 0.02 µM)	530
Nc1ccn([C@@H]2O[C@H](CO)[C@@H](O)C2(F)F)c(=O)n1 [gemcitabine] + COc1cc(Nc2ncc(F)c(Nc3ccc4c(n3)NC(=O)C(C)(C)O4)n2)cc(OC)c1OC [Tamatinib] (first compound 0.0004 µM, partner dose 0.4 µM)	119
Cn1c(=O)n(-c2ccc(C(C)(C)C#N)cc2)c2c3cc(-c4cnc5ccccc5c4)ccc3ncc21 + COc1cc2c(Oc3ccc4[nH]c(C)cc4c3F)ncnc2cc1OCCCN1CCCC1 [cediranib] (first compound 0.004 µM, partner dose 0.4 µM)	65.3
Cc1cc(Nc2cc(N3CCN(C)CC3)nc(/C=C/c3ccccc3)n2)n[nH]1 + NC(=O)Nc1cc(-c2cccc(F)c2)sc1C(=O)N[C@H]1CCCNC1 [AZD7762] (first compound 0.04 µM, partner dose 0.02 µM)	127
Nc1nc(F)nc2c1ncn2[C@@H]1O[C@H](CO)[C@@H](O)[C@@H]1O [fludarabine] + O=C(Nc1cccc(Cl)c1)Nc1ncc(CCNc2ncnc3ccsc23)s1 [SNS314] (first compound 0.2 µM, partner dose 0.0008 µM)	180
CS(=O)(=O)CCNCc1ccc(-c2ccc3ncnc(Nc4ccc(OCc5cccc(F)c5)c(Cl)c4)c3c2)o1 [lapatinib] + CN(NC(=O)CC(=O)NN(C)C(=S)c1ccccc1)C(=S)c1ccccc1 [STA4783] (first compound 0.8 µM, partner dose 0.006 µM)	131
CC(C)C[C@H](NC(=O)[C@H](Cc1ccccc1)NC(=O)c1cnccn1)B(O)O [Bortezomib] + CO[C@@H]1[C@H](N(C)C(=O)c2ccccc2)C[C@H]2O[C@]1(C)n1c3ccccc3c3c4c(c5c6ccccc6n2c5c31)C(=O)NC4 [Midostaurin] (first compound 0.001 µM, partner dose 0.08 µM)	139
C[C@@H](Oc1cc(-c2cnn(C3CCNCC3)c2)cnc1N)c1c(Cl)ccc(F)c1Cl [Crizotinib] + O=C(O)c1ccc(-c2c[nH]c3ncc(-c4ccccc4)cc23)cc1C1CCCC1 [GSK650394] (first compound 0.2 µM, partner dose 0.16 µM)	102
CS(=O)(=O)CCNCc1ccc(-c2ccc3ncnc(Nc4ccc(OCc5cccc(F)c5)c(Cl)c4)c3c2)o1 [lapatinib] + NC(=O)Nc1cc(-c2cccc(F)c2)sc1C(=O)N[C@H]1CCCNC1 [AZD7762] (first compound 0.8 µM, partner dose 0.02 µM)	86
CNC(=O)c1cc(Oc2ccc(NC(=O)Nc3ccc(Cl)c(C(F)(F)F)c3)cc2)ccn1 [sorafenib] + NC(=O)Nc1cc(-c2cccc(F)c2)sc1C(=O)N[C@H]1CCCNC1 [AZD7762] (first compound 0.4 µM, partner dose 0.02 µM)	126
CN1CCN(c2ccc3nc(-c4c(N)c5c(F)cccc5[nH]c4=O)[nH]c3c2)CC1 [Dovitinib] + NCC(=O)Nc1ccc(-n2nc(C(F)(F)F)cc2-c2ccc3c(ccc4ccccc43)c2)cc1 [OSU03012] (first compound 0.1 µM, partner dose 1 µM)	116
C=C(c1ccc(C(=O)O)cc1)c1cc2c(cc1C)C(C)(C)CCC2(C)C [Bexarotene] + NC(=O)Nc1cc(-c2cccc(F)c2)sc1C(=O)N[C@H]1CCCNC1 [AZD7762] (first compound 2 µM, partner dose 0.02 µM)	100
Cn1c(=O)n(-c2ccc(C(C)(C)C#N)cc2)c2c3cc(-c4cnc5ccccc5c4)ccc3ncc21 + Cn1cncc1[C@@](N)(c1ccc(Cl)cc1)c1ccc2c(c1)c(-c1cccc(Cl)c1)cc(=O)n2C [tipifarnib] (first compound 0.004 µM, partner dose 0.01 µM)	102
C[C@@H](Oc1cc(-c2cnn(C3CCNCC3)c2)cnc1N)c1c(Cl)ccc(F)c1Cl [Crizotinib] + CN(NC(=O)CC(=O)NN(C)C(=S)c1ccccc1)C(=S)c1ccccc1 [STA4783] (first compound 0.2 µM, partner dose 0.006 µM)	99.4
CC(C)C[C@H](NC(=O)[C@H](Cc1ccccc1)NC(=O)c1cnccn1)B(O)O [Bortezomib] + COc1cc2c(Oc3ccc4[nH]c(C)cc4c3F)ncnc2cc1OCCCN1CCCC1 [cediranib] (first compound 0.001 µM, partner dose 0.4 µM)	89.5
Cc1cc(Nc2cc(N3CCN(C)CC3)nc(/C=C/c3ccccc3)n2)n[nH]1 + Cc1cc(N2CCOCC2)cc2[nH]c(-c3c(NC[C@@H](O)c4cccc(Cl)c4)cc[nH]c3=O)nc12 [BMS536924] (first compound 0.04 µM, partner dose 0.2 µM)	112
C[C@@H](Oc1cc(-c2cnn(C3CCNCC3)c2)cnc1N)c1c(Cl)ccc(F)c1Cl [Crizotinib] + CC1(C)NC(=O)N(c2ccc([N+](=O)[O-])c(C(F)(F)F)c2)C1=O [nilutamide] (first compound 0.2 µM, partner dose 1 µM)	136
Cn1c(=O)n(-c2ccc(C(C)(C)C#N)cc2)c2c3cc(-c4cnc5ccccc5c4)ccc3ncc21 + NC(=O)Nc1cc(-c2cccc(F)c2)sc1C(=O)N[C@H]1CCCNC1 [AZD7762] (first compound 0.004 µM, partner dose 0.02 µM)	90.3
CC(C)C[C@H](NC(=O)[C@H](Cc1ccccc1)NC(=O)c1cnccn1)B(O)O [Bortezomib] + O=C(O)c1ccc(-c2c[nH]c3ncc(-c4ccccc4)cc23)cc1C1CCCC1 [GSK650394] (first compound 0.001 µM, partner dose 0.16 µM)	95
C[C@@H](Oc1cc(-c2cnn(C3CCNCC3)c2)cnc1N)c1c(Cl)ccc(F)c1Cl [Crizotinib] + C[C@@H]1CCN(C(=O)CC#N)C[C@@H]1N(C)c1ncnc2[nH]ccc12 [CP690550] (first compound 0.2 µM, partner dose 1 µM)	112
CC(C)C[C@H](NC(=O)[C@H](Cc1ccccc1)NC(=O)c1cnccn1)B(O)O [Bortezomib] + Cc1cc(N2CCOCC2)cc2[nH]c(-c3c(NC[C@@H](O)c4cccc(Cl)c4)cc[nH]c3=O)nc12 [BMS536924] (first compound 0.001 µM, partner dose 0.2 µM)	73.3
Nc1ccn([C@@H]2O[C@H](CO)[C@@H](O)C2(F)F)c(=O)n1 [gemcitabine] + CC(C)(C)c1cnc(CSc2cnc(NC(=O)C3CCNCC3)s2)o1 [SNS-032] (first compound 0.0004 µM, partner dose 0.01 µM)	122
CCCS(=O)(=O)Nc1ccc(F)c(C(=O)c2c[nH]c3ncc(Cl)cc23)c1F + C=CCn1c(=O)c2cnc(Nc3ccc(N4CCN(C)CC4)cc3)nc2n1-c1cccc(C(C)(C)O)n1 [MK1775] (first compound 0.08 µM, partner dose 0.02 µM)	97
Nc1ccn([C@@H]2O[C@H](CO)[C@@H](O)C2(F)F)c(=O)n1 [gemcitabine] + CC1(C)NC(=O)N(c2ccc([N+](=O)[O-])c(C(F)(F)F)c2)C1=O [nilutamide] (first compound 0.0004 µM, partner dose 1 µM)	127

In a second layout: entries from further up.
SMILES,cleaved PARP positive nuclei fraction [%]
"CC(C)C[C@H](NC(=O)[C@H](Cc1ccccc1)NC(=O)c1cnccn1)B(O)O [Bortezomib] + O=C(CCCCCCC(=O)Nc1ccccc1)NO [vorinostat] (first compound 0.001 µM, partner dose 0.08 µM)",60.2
"O=C(O)c1ccc2c(c1)nc(Nc1cccc(Cl)c1)c1ccncc12 + O=C(Nc1cccc(Cl)c1)Nc1ncc(CCNc2ncnc3ccsc23)s1 [SNS314] (first compound 0.4 µM, partner dose 0.0008 µM)",107
"Nc1nc(F)nc2c1ncn2[C@@H]1O[C@H](CO)[C@@H](O)[C@@H]1O [fludarabine] + C=CCn1c(=O)c2cnc(Nc3ccc(N4CCN(C)CC4)cc3)nc2n1-c1cccc(C(C)(C)O)n1 [MK1775] (first compound 0.2 µM, partner dose 0.02 µM)",530
"Nc1ccn([C@@H]2O[C@H](CO)[C@@H](O)C2(F)F)c(=O)n1 [gemcitabine] + COc1cc(Nc2ncc(F)c(Nc3ccc4c(n3)NC(=O)C(C)(C)O4)n2)cc(OC)c1OC [Tamatinib] (first compound 0.0004 µM, partner dose 0.4 µM)",119
"Cn1c(=O)n(-c2ccc(C(C)(C)C#N)cc2)c2c3cc(-c4cnc5ccccc5c4)ccc3ncc21 + COc1cc2c(Oc3ccc4[nH]c(C)cc4c3F)ncnc2cc1OCCCN1CCCC1 [cediranib] (first compound 0.004 µM, partner dose 0.4 µM)",65.3
"Cc1cc(Nc2cc(N3CCN(C)CC3)nc(/C=C/c3ccccc3)n2)n[nH]1 + NC(=O)Nc1cc(-c2cccc(F)c2)sc1C(=O)N[C@H]1CCCNC1 [AZD7762] (first compound 0.04 µM, partner dose 0.02 µM)",127
